Measurements published in PMC12147174, “PEX1^G843D remains functional in peroxisome biogenesis but is rapidly degraded by the proteasome” (The Journal of Biological Chemistry, 2025).
Changes are numbered by the printed parent chain. Read-outs that look alike come from different tables or passages of the source. Results are given in words; binding and its absence hold for the method and conditions named. Binding seen in cells or lysates may run through a third protein. Here binding means that the protein was enriched with, or labelled near, the bait; the list need not be complete. Where a sequence is shown, tags or fusion partners need not be part of it. Blank lines part the entries; values can stand above or below the molecule they belong to.

Experiments:
Assay in all cases: affinity purification with mass spectrometry; anti-FLAG M2 agarose eluates from HCT116 lysate (LB1 with ATPγS), TCA precipitated, trypsin, LC-MS/MS; total precursor intensity normalized to PEX1
[1] = molecular target: T1, FLAG-PEX1^WT (human PEX1, N-terminal FLAG knock-in) (human (endogenous in HCT116)) (UniProt O43933)
T1 sequence: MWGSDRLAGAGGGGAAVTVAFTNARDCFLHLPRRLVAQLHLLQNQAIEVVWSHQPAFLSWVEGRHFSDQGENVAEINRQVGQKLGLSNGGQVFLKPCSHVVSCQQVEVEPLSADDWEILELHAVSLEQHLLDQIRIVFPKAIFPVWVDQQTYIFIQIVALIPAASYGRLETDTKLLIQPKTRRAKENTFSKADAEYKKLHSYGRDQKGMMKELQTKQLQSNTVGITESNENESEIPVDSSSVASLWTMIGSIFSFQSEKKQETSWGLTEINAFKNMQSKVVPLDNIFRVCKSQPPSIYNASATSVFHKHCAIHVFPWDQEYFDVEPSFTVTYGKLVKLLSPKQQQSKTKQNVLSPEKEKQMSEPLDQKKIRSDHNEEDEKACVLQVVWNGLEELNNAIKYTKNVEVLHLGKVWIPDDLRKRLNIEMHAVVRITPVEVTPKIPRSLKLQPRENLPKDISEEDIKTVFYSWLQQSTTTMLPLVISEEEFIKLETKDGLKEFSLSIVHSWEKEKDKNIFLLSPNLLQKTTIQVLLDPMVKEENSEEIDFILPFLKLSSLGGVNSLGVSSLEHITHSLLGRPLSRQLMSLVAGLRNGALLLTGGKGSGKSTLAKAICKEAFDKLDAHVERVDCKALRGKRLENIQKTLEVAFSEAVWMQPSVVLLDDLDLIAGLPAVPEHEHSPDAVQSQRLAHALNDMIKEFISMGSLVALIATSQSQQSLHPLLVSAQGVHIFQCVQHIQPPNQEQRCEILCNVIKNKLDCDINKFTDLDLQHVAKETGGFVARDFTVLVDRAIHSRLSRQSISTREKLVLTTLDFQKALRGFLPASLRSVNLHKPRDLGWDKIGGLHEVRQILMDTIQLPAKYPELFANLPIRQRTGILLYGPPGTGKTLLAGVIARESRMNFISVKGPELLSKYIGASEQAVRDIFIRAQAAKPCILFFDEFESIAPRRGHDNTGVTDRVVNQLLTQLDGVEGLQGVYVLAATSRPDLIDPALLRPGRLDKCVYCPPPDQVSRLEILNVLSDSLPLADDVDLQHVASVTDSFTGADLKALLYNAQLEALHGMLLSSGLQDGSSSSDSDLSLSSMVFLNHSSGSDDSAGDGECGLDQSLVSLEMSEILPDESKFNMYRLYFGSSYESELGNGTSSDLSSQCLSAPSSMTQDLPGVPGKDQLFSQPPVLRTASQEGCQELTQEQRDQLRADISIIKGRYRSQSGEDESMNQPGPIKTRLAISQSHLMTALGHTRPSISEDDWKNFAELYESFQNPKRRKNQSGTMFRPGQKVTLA

[2] = molecular target: T1, FLAG-PEX1^WT (human PEX1, N-terminal FLAG knock-in) (human (endogenous in HCT116)); remark: listed apart in the source
[3] = molecular target: T2, PEX1^G843D-FLAG (human PEX1 G843D, C-terminal FLAG knock-in) (human (endogenous in HCT116)) (UniProt O43933)
T2 sequence: T1 sequence with G843D

[4] = molecular target: T3, PEX1^WT-FLAG (human PEX1, C-terminal FLAG knock-in) (human (endogenous in HCT116)) (UniProt O43933)
T3 sequence: T1 sequence

Molecule: p97 (human) (from UniProt P55072 1-806) (enzyme)
binding [1]: binds

B2: SPATA5 (human) (enzyme, UniProt Q8NB90 1-893)
chain: MSSKKNRKRLNQSAENGSSLPSAASSCAEARAPSAGSDFAATSGTLTVTNLLEKVDDKIPKTFQNSLIHLGLNTMKSANICIGRPVLLTSLNGKQEVYTAWPMAGFPGGKVGLSEMAQKNVGVRPGDAIQVQPLVGAVLQAEEMDVALSDKDMEINEEELTGCILRKLDGKIVLPGNFLYCTFYGRPYKLQVLRVKGADGMILGGPQSDSDTDAQRMAFEQSSMETSSLELSLQLSQLDLEDTQIPTSRSTPYKPIDDRITNKASDVLLDVTQSPGDGSGLMLEEVTGLKCNFESAREGNEQLTEEERLLKFSIGAKCNTDTFYFISSTTRVNFTEIDKNSKEQDNQFKVTYDMIGGLSSQLKAIREIIELPLKQPELFKSYGIPAPRGVLLYGPPGTGKTMIARAVANEVGAYVSVINGPEIISKFYGETEAKLRQIFAEATLRHPSIIFIDELDALCPKREGAQNEVEKRVVASLLTLMDGIGSEVSEGQVLVLGATNRPHALDAALRRPGRFDKEIEIGVPNAQDRLDILQKLLRRVPHLLTEAELLQLANSAHGYVGADLKVLCNEAGLCALRRILKKQPNLPDVKVAGLVKITLKDFLQAMNDIRPSAMREIAIDVPNVSWSDIGGLESIKLKLEQAVEWPLKHPESFIRMGIQPPKGVLLYGPPGCSKTMIAKALANESGLNFLAIKGPELMNKYVGESERAVRETFRKARAVAPSIIFFDELDALAVERGSSLGAGNVADRVLAQLLTEMDGIEQLKDVTILAATNRPDRIDKALMRPGRIDRIIYVPLPDAATRREIFKLQFHSMPVSNEVDLDELILQTDAYSGAEIVAVCREAALLALEEDIQANLIMKRHFTQALSTVTPRIPESLRRFYEDYQEKSGLHTL
binding [2]: binds

Results, then the molecule that gave them:

binding [2]: binds
B1: ATAD2 (human) (enzyme, UniProt Q6PL18 1-1390)
chain: MVVLRSSLELHNHSAASATGSLDLSSDFLSLEHIGRRRLRSAGAAQKKPAATTAKAGDGSSVKEVETYHRTRALRSLRKDAQNSSDSSFEKNVEITEQLANGRHFTRQLARQQADKKKEEHREDKVIPVTRSLRARNIVQSTEHLHEDNGDVEVRRSCRIRSRYSGVNQSMLFDKLITNTAEAVLQKMDDMKKMRRQRMRELEDLGVFNETEESNLNMYTRGKQKDIQRTDEETTDNQEGSVESSEEGEDQEHEDDGEDEDDEDDDDDDDDDDDDDDEDDEDEEDGEEENQKRYYLRQRKATVYYQAPLEKPRHQRKPNIFYSGPASPARPRYRLSSAGPRSPYCKRMNRRRHAIHSSDSTSSSSSEDEQHFERRRKRSRNRAINRCLPLNFRKDELKGIYKDRMKIGASLADVDPMQLDSSVRFDSVGGLSNHIAALKEMVVFPLLYPEVFEKFKIQPPRGCLFYGPPGTGKTLVARALANECSQGDKRVAFFMRKGADCLSKWVGESERQLRLLFDQAYQMRPSIIFFDEIDGLAPVRSSRQDQIHSSIVSTLLALMDGLDSRGEIVVIGATNRLDSIDPALRRPGRFDREFLFSLPDKEARKEILKIHTRDWNPKPLDTFLEELAENCVGYCGADIKSICAEAALCALRRRYPQIYTTSEKLQLDLSSINISAKDFEVAMQKMIPASQRAVTSPGQALSTVVKPLLQNTVDKILEALQRVFPHAEFRTNKTLDSDISCPLLESDLAYSDDDVPSVYENGLSQKSSHKAKDNFNFLHLNRNACYQPMSFRPRILIVGEPGFGQGSHLAPAVIHALEKFTVYTLDIPVLFGVSTTSPEETCAQVIREAKRTAPSIVYVPHIHVWWEIVGPTLKATFTTLLQNIPSFAPVLLLATSDKPHSALPEEVQELFIRDYGEIFNVQLPDKEERTKFFEDLILKQAAKPPISKKKAVLQALEVLPVAPPPEPRSLTAEEVKRLEEQEEDTFRELRIFLRNVTHRLAIDKRFRVFTKPVDPDEVPDYVTVIKQPMDLSSVISKIDLHKYLTVKDYLRDIDLICSNALEYNPDRDPGDRLIRHRACALRDTAYAIIKEELDEDFEQLCEEIQESRKKRGCSSSKYAPSYYHVMPKQNSTLVGDKRSDPEQNEKLKTPSTPVACSTPAQLKRKIRKKSNWYLGTIKKRRKISQAKDDSQNAIDHKIESDTEETQDTSVDHNETGNTGESSVEENEKQQNASESKLELRNNSNTCNIENELEDSRKTTACTELRDKIACNGDASSSQIIHISDENEGKEMCVLRMTRARRSQVEQQQLITVEKALAILSQPTPSLVVDHERLKNLLKTVVKKSQNYNIFQLENLYAVISQCIYRHRKDHDKTSLIQKMEQEVENFSCSR

binding [3]: binds
binding [2]: binds
binding [4]: binds
B3: PEX6 (human) (protein, UniProt Q13608 1-980)
chain: MALAVLRVLEPFPTETPPLAVLLPPGGPWPAAELGLVLALRPAGESPAGPALLVAALEGPDAGTEEQGPGPPQLLVSRALLRLLALGSGAWVRARAVRRPPALGWALLGTSLGPGLGPRVGPLLVRRGETLPVPGPRVLETRPALQGLLGPGTRLAVTELRGRARLCPESGDSSRPPPPPVVSSFAVSGTVRRLQGVLGGTGDSLGVSRSCLRGLGLFQGEWVWVAQARESSNTSQPHLARVQVLEPRWDLSDRLGPGSGPLGEPLADGLALVPATLAFNLGCDPLEMGELRIQRYLEGSIAPEDKGSCSLLPGPPFARELHIEIVSSPHYSTNGNYDGVLYRHFQIPRVVQEGDVLCVPTIGQVEILEGSPEKLPRWREMFFKVKKTVGEAPDGPASAYLADTTHTSLYMVGSTLSPVPWLPSEESTLWSSLSPPGLEALVSELCAVLKPRLQPGGALLTGTSSVLLRGPPGCGKTTVVAAACSHLGLHLLKVPCSSLCAESSGAVETKLQAIFSRARRCRPAVLLLTAVDLLGRDRDGLGEDARVMAVLRHLLLNEDPLNSCPPLMVVATTSRAQDLPADVQTAFPHELEVPALSEGQRLSILRALTAHLPLGQEVNLAQLARRCAGFVVGDLYALLTHSSRAACTRIKNSGLAGGLTEEDEGELCAAGFPLLAEDFGQALEQLQTAHSQAVGAPKIPSVSWHDVGGLQEVKKEILETIQLPLEHPELLSLGLRRSGLLLHGPPGTGKTLLAKAVATECSLTFLSVKGPELINMYVGQSEENVREVFARARAAAPCIIFFDELDSLAPSRGRSGDSGGVMDRVVSQLLAELDGLHSTQDVFVIGATNRPDLLDPALLRPGRFDKLVFVGANEDRASQLRVLSAITRKFKLEPSVSLVNVLDCCPPQLTGADLYSLCSDAMTAALKRRVHDLEEGLEPGSSALMLTMEDLLQAAARLQPSVSEQELLRYKRIQRKFAAC
